The results in this text go back to patent US11364222B2, “Combination therapy for treatment of cancer” (G1 Therapeutics, Inc., priority 2017, dated 2022).

Structures are written as SMILES.

This assay deals with MCF-7 cells. Description: MCF7 7 day proliferation assay in the presence of 0.1 nM E2 (Hoechst DNA content). In kind it is cell-based. The note with it: Homo sapiens, MCF7, 168 h, read-out: IC50, MCF7 proliferation.

With `CC/C(=C(\c1ccccc1)c1ccc(OCCN(C)C)cc1)c1ccccc1` [tamoxifen, Tamoxifen], the IC50 was found to be 985 nM.
